The source of these data is article PMC7046344.

These are yes or no findings as the source states them, for the method shown. In cells and extracts the contact can be indirect. Some binding calls cover weakened binding; strength is not graded here. Tags and fused reporters may be left off the sequences shown.

One test deals with T1, Spn-F-FLAG (Drosophila) (UniProt Q9V9Y9).
T1 sequence: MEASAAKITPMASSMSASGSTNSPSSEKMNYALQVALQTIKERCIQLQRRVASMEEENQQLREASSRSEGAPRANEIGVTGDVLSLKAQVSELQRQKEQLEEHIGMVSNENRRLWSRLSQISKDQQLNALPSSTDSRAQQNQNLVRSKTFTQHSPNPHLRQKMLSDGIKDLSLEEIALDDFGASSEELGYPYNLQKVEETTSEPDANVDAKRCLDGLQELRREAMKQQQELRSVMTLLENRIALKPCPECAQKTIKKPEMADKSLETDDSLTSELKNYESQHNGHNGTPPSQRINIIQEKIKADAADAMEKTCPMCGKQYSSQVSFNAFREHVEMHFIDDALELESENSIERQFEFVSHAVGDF
In words: co-IP; lysates of co-transfected S2 cells (20 mM Tris pH 7.0, 150 mM NaCl, 2 mM EDTA, 1% TritonX-100, 1 mM DTT) incubated with anti-FLAG M2 agarose beads on ice, washed with lysis buffer; immunoblot. In general terms: Immunoblotting shows a protein as a band on a membrane.

Test [1] has as its target T2, FLAG-Rab11-DN (Drosophila) (UniProt O18335).
T2 sequence: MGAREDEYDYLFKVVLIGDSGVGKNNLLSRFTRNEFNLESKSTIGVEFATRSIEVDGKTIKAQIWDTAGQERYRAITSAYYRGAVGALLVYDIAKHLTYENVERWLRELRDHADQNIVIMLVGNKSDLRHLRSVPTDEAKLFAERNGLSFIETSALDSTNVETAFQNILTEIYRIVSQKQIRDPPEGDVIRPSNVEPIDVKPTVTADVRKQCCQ
The test is described as above.

Test [2] concerns the target T3, endogenous Rab11 (Drosophila (endogenous in S2 cells)) (UniProt O18335).
T3 sequence: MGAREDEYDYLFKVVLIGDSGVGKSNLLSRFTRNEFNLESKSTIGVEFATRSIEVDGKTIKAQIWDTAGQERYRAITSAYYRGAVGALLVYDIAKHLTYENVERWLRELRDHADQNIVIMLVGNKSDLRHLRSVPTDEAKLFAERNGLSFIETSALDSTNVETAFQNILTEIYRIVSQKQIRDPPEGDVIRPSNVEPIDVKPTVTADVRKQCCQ
In words: co-IP; co-immunoprecipitation with anti-Rab11 antibodies from lysates of Drosophila S2 cells expressing Spn-F-myc or control GFP-myc; immunoblot.

B1: myc-Rab11-DN (protein, UniProt O18335 1-214)
chain: MGAREDEYDYLFKVVLIGDSGVGKNNLLSRFTRNEFNLESKSTIGVEFATRSIEVDGKTIKAQIWDTAGQERYRAITSAYYRGAVGALLVYDIAKHLTYENVERWLRELRDHADQNIVIMLVGNKSDLRHLRSVPTDEAKLFAERNGLSFIETSALDSTNVETAFQNILTEIYRIVSQKQIRDPPEGDVIRPSNVEPIDVKPTVTADVRKQCCQ
B1: the binding result with Spn-F-FLAG (Drosophila) is recorded as “binds”.

B2: Spn-F-myc (protein, UniProt Q9V9Y9 1-364)
chain: MEASAAKITPMASSMSASGSTNSPSSEKMNYALQVALQTIKERCIQLQRRVASMEEENQQLREASSRSEGAPRANEIGVTGDVLSLKAQVSELQRQKEQLEEHIGMVSNENRRLWSRLSQISKDQQLNALPSSTDSRAQQNQNLVRSKTFTQHSPNPHLRQKMLSDGIKDLSLEEIALDDFGASSEELGYPYNLQKVEETTSEPDANVDAKRCLDGLQELRREAMKQQQELRSVMTLLENRIALKPCPECAQKTIKKPEMADKSLETDDSLTSELKNYESQHNGHNGTPPSQRINIIQEKIKADAADAMEKTCPMCGKQYSSQVSFNAFREHVEMHFIDDALELESENSIERQFEFVSHAVGDF
Regarding B2, the binding entry in test [1] and in test [2] was “binds” throughout.

B3: SpnF-ΔC-myc (domain or fragment, UniProt Q9V9Y9 1-339)
chain: MEASAAKITPMASSMSASGSTNSPSSEKMNYALQVALQTIKERCIQLQRRVASMEEENQQLREASSRSEGAPRANEIGVTGDVLSLKAQVSELQRQKEQLEEHIGMVSNENRRLWSRLSQISKDQQLNALPSSTDSRAQQNQNLVRSKTFTQHSPNPHLRQKMLSDGIKDLSLEEIALDDFGASSEELGYPYNLQKVEETTSEPDANVDAKRCLDGLQELRREAMKQQQELRSVMTLLENRIALKPCPECAQKTIKKPEMADKSLETDDSLTSELKNYESQHNGHNGTPPSQRINIIQEKIKADAADAMEKTCPMCGKQYSSQVSFNAFREHVEMHFID
In the case of B3, in test [1], the binding result was “binds”.
